Results from ChEMBL document CHEMBL4513141, “CO-ADD screening of NIH (USA) - Clinical Collection” (2021).
This is one part of the list. Entries with a potency or affinity are not part of this list.

The compounds below were run on Acinetobacter baumannii. Details: Concentration 20 uM; ASSAY_TEST Inhibition of Bacterial Growth; detection method Absorption (OD600); MEDIA CAMHB; plate type 384well; NBS; CORNING #3640; time 18 hr.

Going from `CN(C)CCOC(c1ccccc1)c1ccccc1.Cl` [DIPHENHYDRAMINE HYDROCHLORIDE] to `CN(C)CCCSc1ccccc1NC(=O)/C=C/c1ccccc1.Cl.O`, the Inhibition rises from 12.18% to 20.68%.

First: CCOC(=O)C1(CCCCCCOc2ccc(Cl)cc2)CO1 (stereo not drawn) [rac-ETOMOXIR]
Second: CC(C)NCC(O)COc1ccc(CCOCC2CC2)cc1.Cl (stereo not given) [BETAXOLOL HYDROCHLORIDE]
The Inhibition of the first is lower: 12.11% for the first, 26.37% for the second.

Compared with `O=C(C1CCCCC1)N1CC(=O)N2CCc3ccccc3C2C1` (stereo not given) [PRAZIQUANTEL], `CCOc1cc(CC(=O)N[C@@H](CC(C)C)c2ccccc2N2CCCCC2)ccc1C(=O)O` [REPAGLINIDE] is lower in Inhibition: 17.48% for the first, 15.61% for the second.

Going from `CC(C)(C#N)c1cc(Cn2cncn2)cc(C(C)(C)C#N)c1` [ANASTROZOLE] to `CN(CCO)CC(O)Cn1cnc2c1c(=O)n(C)c(=O)n2C.O=C(O)c1cccnc1` (stereo not given) [XANTHINOL NIACINATE], the Inhibition rises from -0.7% to 27.77%.

Going from `Nc1ccn([C@H]2CC[C@@H](CO)O2)c(=O)n1` [ZALCITABINE] to `Nc1nc(Cl)nc2c1ncn2[C@H]1C[C@H](O)[C@@H](CO)O1` [CLADRIBINE], the Inhibition rises from 3.66% to 27.7%.

First: Oc1ccc(/C=C/c2cc(O)cc(O)c2)cc1 [RESVERATROL]
Second: COc1cc(/C=C/c2ccc(O)cc2)cc(OC)c1 [PTEROSTILBENE]
The Inhibition of the first is lower: 17.94% for the first, 28.58% for the second.

First: COc1ccc(/C=C/C(=O)Nc2ccccc2C(=O)O)cc1OC
Second: COc1ccc(C(=O)NCc2ccc(OCCN(C)C)cc2)cc1OC.Cl
The Inhibition of the first is higher: 26.4% for the first, 1.28% for the second.

First: Cl.O=C(NCC1CCCCN1)c1cc(OCC(F)(F)F)ccc1OCC(F)(F)F (stereo not given)
Second: Cl.O[C@@H](c1cc(C(F)(F)F)nc2c(C(F)(F)F)cccc12)[C@H]1CCCCN1
The Inhibition of the first is lower: 22.09% for the first, 32.5% for the second.

Compared with `CN1CCN(C2=Nc3cc(F)ccc3Cc3ccccc32)CC1` [FLUPERLAPINE], `CN1CCN(C2=Nc3ccccc3Oc3ccc(Cl)cc32)CC1.O=C(O)CCC(=O)O` [LOXAPINE SUCCINATE] is lower in Inhibition: 26.43% for the first, 23.44% for the second.

Going from `CC(C[N+](C)(C)C)OC(N)=O.[Cl-]` (stereo not given) [BETHANECHOL CHLORIDE] to `Cc1cccc(C)c1NC(=O)C(C)N` (stereo not given) [TOCAINIDE], the Inhibition rises from 5.89% to 30.81%.

Going from `COc1cc(C[C@@H](CO)[C@H](CO)Cc2ccc(O)c(OC)c2)ccc1O` [(+)-SECOISOLARICIRESINOL] to `COc1cc2c(cc1OC)C(=O)C(CC1CCN(Cc3ccccc3)CC1)C2.Cl` (stereo not given) [DONEPEZIL HYDROCHLORIDE], the Inhibition falls from 17.28% to 15.08%.

Going from `Cl.c1ccc(CC2=NCCN2)cc1` [TOLAZOLINE HYDROCHLORIDE] to `OCc1cccnc1` [NICOTINYL ALCOHOL], the Inhibition rises from 9.03% to 12.41%.

Compared with `Cl.Clc1ccc2nsnc2c1NC1=NCCN1` [TIZANIDINE HYDROCHLORIDE], `Cc1sc(N)c(C(=O)c2cccc(C(F)(F)F)c2)c1C` is lower in Inhibition: 4.87% for the first, 4.19% for the second.

Compared with `Cc1c(C(=O)NN2CCCCC2)nn(-c2ccc(Cl)cc2Cl)c1-c1ccc(I)cc1`, `Cl.O=C(c1ccc(OCCN2CCCCC2)cc1)c1c(-c2ccc(O)cc2)sc2cc(O)ccc12` [RALOXIFENE HYDROCHLORIDE] is higher in Inhibition: 10.46% for the first, 22.38% for the second.

Going from `O=C(O)CCNC(=O)c1ccc(N=Nc2ccc(O)c(C(=O)O)c2)cc1` to `COc1ccc2c(c1)c(CC(=O)O)c(C)n2C(=O)c1ccc(Cl)cc1.O`, the Inhibition falls from 12.14% to 9.56%.

Compared with `Cl.Cn1c(NCCN(CCO)CCCc2ccc([N+](=O)[O-])cc2)cc(=O)n(C)c1=O`, `COc1ccccc1N1CCN(CCCNc2cc(=O)n(C)c(=O)n2C)CC1.Cl` [URAPIDIL HYDROCHLORIDE] is higher in Inhibition: 7.77% for the first, 26.15% for the second.

Going from `C[C@]12C=CC(=O)C=C1CC[C@@H]1[C@@H]2[C@@H](O)C[C@@]2(C)[C@H]1CC[C@]2(O)C(=O)CO` [PREDNISOLONE] to `C[C@]12C=CC(=O)C=C1CC[C@@H]1[C@@H]2[C@@H](O)C[C@@]2(C)[C@H]1CC[C@]2(O)C(=O)COC(=O)CCC(=O)[O-].[Na+]` [PREDNISOLONE SODIUM SUCCINATE], the Inhibition falls from 15.17% to 7.06%.

Compared with `CCC(CO)NCCNC(CC)CO` (stereo not given), `CCCN(CCC)S(=O)(=O)c1ccc(C(=O)O)cc1` [PROBENECID] is higher in Inhibition: 29.88% for the first, 30.42% for the second.

Going from `CC1=C(/C=C/C(C)=C/C=C/C(C)=C/C(=O)O)C(C)(C)CCC1` [TRETINOIN] to `CC(=O)OCC(=O)[C@@]1(O)CC[C@H]2[C@@H]3CCC4=CC(=O)CC[C@]4(C)[C@H]3[C@@H](O)C[C@@]21C` [HYDROCORTISONE ACETATE], the Inhibition rises from 15.06% to 22.72%.

First: CCOC(=O)[C@@H](CCc1ccccc1)N[C@@H](C)C(=O)N1CCC[C@H]1C(=O)O.O=C(O)/C=C\C(=O)O
Second: CC(C(O)c1ccc(O)cc1)N1CCC(Cc2ccccc2)CC1.O.O=C(O)C(O)C(O)C(=O)O (stereo not given)
The Inhibition of the first is lower: 21.08% for the first, 29.41% for the second.

First: CC(=O)OCC(=O)C12OC3(CCCC3)OC1CC1C3CCC4=CC(=O)C=CC4(C)C3(F)C(O)CC12C (stereo not given)
Second: CCC(=O)O[C@]1(C(=O)CCl)[C@@H](C)C[C@H]2[C@@H]3CCC4=CC(=O)C=C[C@]4(C)[C@@]3(F)[C@@H](O)C[C@@]21C [CLOBETASOL PROPIONATE]
The Inhibition of the first is higher: 17.04% for the first, 5.15% for the second.

Going from `CC(CCc1ccccc1)NCC(O)c1ccc(O)c(C(N)=O)c1.Cl` (stereo not given) [LABETALOL HYDROCHLORIDE] to `CC(C(=O)O)c1cccc(C(=O)c2ccccc2)c1` (stereo not given) [KETOPROFEN], the Inhibition falls from 25.37% to 24.16%.

First: COc1cc2nc(N(C)CCCNC(=O)C3CCCO3)nc(N)c2cc1OC (stereo not given) [ALFUZOSIN]
Second: CC(C)c1ccc2oc3nc(N)c(C(=O)O)cc3c(=O)c2c1 [AMLEXANOX]
The Inhibition of the first is higher: 19.22% for the first, 18.03% for the second.

First: N[C@@H]1CONC1=O [CYCLOSERINE]
Second: Cc1occc(=O)c1O [MALTOL]
The Inhibition of the first is lower: 25.21% for the first, 26.74% for the second.

Compared with `O=C(O)COCCN1CCN(C(c2ccccc2)c2ccc(Cl)cc2)CC1` (stereo not given) [CETIRIZINE], `O=C(O)c1cc2ccccc2c(Cc2c(O)c(C(=O)O)cc3ccccc23)c1O.OCCOCCN1CCN(C(c2ccccc2)c2ccc(Cl)cc2)CC1` [HYDROXYZINE PAMOATE] is higher in Inhibition: 7.09% for the first, 25.25% for the second.

First: CC(=O)OCC(=O)[C@@]1(O)CC[C@H]2[C@@H]3CCC4=CC(=O)CC[C@]4(C)[C@H]3C(=O)C[C@@]21C [CORTISONE ACETATE]
Second: C[C@]12CCC(=O)C=C1CC[C@@H]1[C@@H]2C(=O)C[C@@]2(C)[C@H]1CC[C@]2(O)C(=O)CO [CORTISONE]
The Inhibition of the first is higher: 30.1% for the first, 18.48% for the second.

Going from `CC1CNc2c(cccc2S(=O)(=O)N[C@@H](CCCNC(=N)N)C(=O)N2CC[C@@H](C)C[C@@H]2C(=O)O)C1` (stereo not given in full) [ARGATROBAN] to `CC(C)(C)NC(=O)[C@@H]1C[C@@H]2CCCC[C@@H]2CN1C[C@@H](O)[C@H](Cc1ccccc1)NC(=O)[C@H](CC(N)=O)NC(=O)c1ccc2ccccc2n1.CS(=O)(=O)O` [SAQUINAVIR MESYLATE], the Inhibition falls from 26.1% to 3.89%.

Compared with `O=C1CN(/N=C/c2ccc(-c3ccc([N+](=O)[O-])cc3)o2)C(=O)[N-]1.[Na+]` [DANTROLENE SODIUM], `Cc1onc(-c2ccccc2)c1-c1ccc(S(N)(=O)=O)cc1` [VALDECOXIB] is higher in Inhibition: 9.64% for the first, 22.84% for the second.

Compared with `O=c1cnn([C@@H]2O[C@H](CO)[C@@H](O)[C@H]2O)c(=O)[nH]1` [6-AZAURIDINE], `Nc1nc2c(ncn2COCCO)c(=O)[nH]1` [ACYCLOVIR] is lower in Inhibition: 9.01% for the first, 6.13% for the second.

Going from `N[C@@H](Cc1cc(I)c(Oc2cc(I)c(O)c(I)c2)c(I)c1)C(=O)O` [LEVOTHYROXINE] to `COC(=O)Nc1nc2cc(C(=O)c3ccccc3)ccc2[nH]1` [MEBENDAZOLE], the Inhibition rises from 5.92% to 19.38%.

Compared with `CCCc1cc(=O)[nH]c(=S)[nH]1` [PROPYLTHIOURACIL], `CC(=O)CCCCn1c(=O)c2c(ncn2C)n(C)c1=O` [PENTOXIFYLLINE] is higher in Inhibition: 26.31% for the first, 28.38% for the second.

Going from `CC12CC3CC(C)(C1)CC(N)(C3)C2.Cl` [MEMANTINE HYDROCHLORIDE] to `CC[C@]1(O)C[C@@H]2CN(CCc3c([nH]c4ccccc34)[C@@](C(=O)OC)(c3cc4c(cc3OC)N(C)[C@H]3[C@@](O)(C(N)=O)[C@H](O)[C@]5(CC)C=CCN6CC[C@]43[C@@H]65)C2)C1.O=S(=O)(O)O` [VINDESINE SULFATE], the Inhibition falls from 21.12% to 7.96%.

First: CC#C[C@]1(O)CC[C@H]2[C@@H]3CCC4=CC(=O)CCC4=C3[C@@H](c3ccc(N(C)C)cc3)C[C@@]21C [MIFEPRISTONE]
Second: CCC(=O)O[C@]1(C(=O)SCF)[C@H](C)C[C@H]2[C@@H]3C[C@H](F)C4=CC(=O)C=C[C@]4(C)[C@@]3(F)[C@@H](O)C[C@@]21C [FLUTICASONE PROPIONATE]
The Inhibition of the first is higher: 17.82% for the first, 8.93% for the second.

Going from `Nc1ccc2cn[nH]c2c1` to `CS(=O)(=O)c1ccc(-c2cc(Br)sc2-c2ccc(F)cc2)cc1` [DUP-697], the Inhibition rises from 8.02% to 10.38%.

Going from `CN(C)CCOC(C)(c1ccccc1)c1ccccn1.O=C(O)CCC(=O)O` (stereo not given) [DOXYLAMINE SUCCINATE] to `O=C(NCCN1CCOCC1)c1ccc(Cl)cc1` [MOCLOBEMIDE], the Inhibition falls from 21.19% to 4.07%.
